The source of these data is PMC3365098.

Chains of the proteins cited; added tags and fusions are not shown.
UniProt Q8K4E0: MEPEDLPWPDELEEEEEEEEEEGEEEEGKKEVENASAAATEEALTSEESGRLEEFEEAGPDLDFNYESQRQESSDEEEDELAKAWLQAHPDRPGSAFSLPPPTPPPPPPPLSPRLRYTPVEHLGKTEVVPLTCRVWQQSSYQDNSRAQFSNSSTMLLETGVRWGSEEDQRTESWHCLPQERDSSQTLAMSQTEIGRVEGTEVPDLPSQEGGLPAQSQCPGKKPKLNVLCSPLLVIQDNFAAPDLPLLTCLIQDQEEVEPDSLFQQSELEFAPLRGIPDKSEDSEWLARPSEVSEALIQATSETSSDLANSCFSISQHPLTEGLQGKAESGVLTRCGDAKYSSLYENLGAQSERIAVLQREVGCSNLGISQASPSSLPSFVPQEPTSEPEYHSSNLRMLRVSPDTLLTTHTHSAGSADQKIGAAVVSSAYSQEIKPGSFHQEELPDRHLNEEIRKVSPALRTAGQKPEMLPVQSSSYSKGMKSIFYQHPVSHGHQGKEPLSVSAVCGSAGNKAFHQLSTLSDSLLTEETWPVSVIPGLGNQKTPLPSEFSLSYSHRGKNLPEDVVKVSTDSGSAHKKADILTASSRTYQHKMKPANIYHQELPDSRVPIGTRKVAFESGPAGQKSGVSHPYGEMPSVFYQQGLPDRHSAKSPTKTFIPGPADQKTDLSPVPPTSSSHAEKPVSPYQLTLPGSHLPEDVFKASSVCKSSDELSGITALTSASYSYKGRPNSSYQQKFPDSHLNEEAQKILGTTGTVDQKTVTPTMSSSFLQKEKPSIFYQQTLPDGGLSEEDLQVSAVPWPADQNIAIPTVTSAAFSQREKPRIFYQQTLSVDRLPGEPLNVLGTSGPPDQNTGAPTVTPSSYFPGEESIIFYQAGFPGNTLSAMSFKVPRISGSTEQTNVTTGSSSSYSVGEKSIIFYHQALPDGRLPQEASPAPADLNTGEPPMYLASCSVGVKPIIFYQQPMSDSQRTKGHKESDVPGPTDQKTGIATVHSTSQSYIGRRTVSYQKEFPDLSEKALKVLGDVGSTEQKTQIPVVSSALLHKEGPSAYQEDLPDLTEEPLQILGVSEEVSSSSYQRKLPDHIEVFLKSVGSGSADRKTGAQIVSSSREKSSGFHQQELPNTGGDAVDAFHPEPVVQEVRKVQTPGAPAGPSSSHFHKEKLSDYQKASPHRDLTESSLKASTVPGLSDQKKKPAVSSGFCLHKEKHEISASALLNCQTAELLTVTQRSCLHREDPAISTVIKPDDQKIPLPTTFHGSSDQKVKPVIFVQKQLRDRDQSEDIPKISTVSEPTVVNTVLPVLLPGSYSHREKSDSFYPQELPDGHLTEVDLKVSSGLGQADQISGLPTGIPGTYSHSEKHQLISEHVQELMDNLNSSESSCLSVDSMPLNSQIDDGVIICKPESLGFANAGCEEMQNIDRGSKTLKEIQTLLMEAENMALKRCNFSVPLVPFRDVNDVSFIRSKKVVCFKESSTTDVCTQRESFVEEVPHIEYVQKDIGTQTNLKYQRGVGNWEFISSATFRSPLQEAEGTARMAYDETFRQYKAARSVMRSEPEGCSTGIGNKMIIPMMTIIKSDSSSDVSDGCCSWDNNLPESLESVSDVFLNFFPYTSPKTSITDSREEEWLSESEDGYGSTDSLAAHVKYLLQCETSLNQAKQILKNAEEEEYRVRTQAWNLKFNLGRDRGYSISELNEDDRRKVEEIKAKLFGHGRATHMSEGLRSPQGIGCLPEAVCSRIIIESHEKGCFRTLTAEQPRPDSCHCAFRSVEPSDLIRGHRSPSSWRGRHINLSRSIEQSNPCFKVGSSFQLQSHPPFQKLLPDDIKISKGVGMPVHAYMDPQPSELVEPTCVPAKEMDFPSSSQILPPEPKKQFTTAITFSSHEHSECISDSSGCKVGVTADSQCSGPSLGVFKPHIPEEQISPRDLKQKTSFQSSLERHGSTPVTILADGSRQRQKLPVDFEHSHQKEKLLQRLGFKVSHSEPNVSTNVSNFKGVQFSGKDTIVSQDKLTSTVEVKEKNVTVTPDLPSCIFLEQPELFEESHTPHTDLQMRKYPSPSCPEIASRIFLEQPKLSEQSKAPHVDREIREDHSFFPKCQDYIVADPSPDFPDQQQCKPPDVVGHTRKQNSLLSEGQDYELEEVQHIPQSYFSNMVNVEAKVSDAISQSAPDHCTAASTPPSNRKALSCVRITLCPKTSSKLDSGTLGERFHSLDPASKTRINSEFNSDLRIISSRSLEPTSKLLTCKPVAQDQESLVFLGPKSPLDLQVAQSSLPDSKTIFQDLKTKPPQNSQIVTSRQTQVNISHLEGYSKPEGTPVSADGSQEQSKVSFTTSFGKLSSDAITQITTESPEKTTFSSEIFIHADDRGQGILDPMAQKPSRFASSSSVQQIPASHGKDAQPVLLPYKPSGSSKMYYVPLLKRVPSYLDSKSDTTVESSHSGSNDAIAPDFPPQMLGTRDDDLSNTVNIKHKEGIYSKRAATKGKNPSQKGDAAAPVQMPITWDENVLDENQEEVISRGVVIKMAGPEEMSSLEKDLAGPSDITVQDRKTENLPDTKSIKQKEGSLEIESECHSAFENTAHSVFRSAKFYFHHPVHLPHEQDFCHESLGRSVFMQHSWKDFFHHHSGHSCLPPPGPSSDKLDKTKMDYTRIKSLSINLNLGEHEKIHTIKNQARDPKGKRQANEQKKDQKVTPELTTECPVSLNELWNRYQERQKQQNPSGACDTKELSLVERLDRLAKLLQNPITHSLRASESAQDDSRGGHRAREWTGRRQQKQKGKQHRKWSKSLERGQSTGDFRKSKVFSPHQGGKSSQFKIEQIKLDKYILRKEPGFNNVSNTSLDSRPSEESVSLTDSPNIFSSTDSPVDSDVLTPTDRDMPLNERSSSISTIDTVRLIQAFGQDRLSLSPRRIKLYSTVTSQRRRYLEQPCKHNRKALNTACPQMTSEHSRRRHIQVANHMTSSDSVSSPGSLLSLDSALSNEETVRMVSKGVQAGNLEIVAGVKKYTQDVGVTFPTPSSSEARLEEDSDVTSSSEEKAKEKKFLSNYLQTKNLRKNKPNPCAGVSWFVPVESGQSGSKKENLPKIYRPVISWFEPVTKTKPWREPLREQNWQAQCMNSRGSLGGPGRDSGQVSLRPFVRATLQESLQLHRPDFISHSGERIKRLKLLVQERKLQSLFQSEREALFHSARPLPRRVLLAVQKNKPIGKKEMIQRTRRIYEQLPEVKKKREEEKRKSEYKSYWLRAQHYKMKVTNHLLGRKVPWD
UniProt P57780: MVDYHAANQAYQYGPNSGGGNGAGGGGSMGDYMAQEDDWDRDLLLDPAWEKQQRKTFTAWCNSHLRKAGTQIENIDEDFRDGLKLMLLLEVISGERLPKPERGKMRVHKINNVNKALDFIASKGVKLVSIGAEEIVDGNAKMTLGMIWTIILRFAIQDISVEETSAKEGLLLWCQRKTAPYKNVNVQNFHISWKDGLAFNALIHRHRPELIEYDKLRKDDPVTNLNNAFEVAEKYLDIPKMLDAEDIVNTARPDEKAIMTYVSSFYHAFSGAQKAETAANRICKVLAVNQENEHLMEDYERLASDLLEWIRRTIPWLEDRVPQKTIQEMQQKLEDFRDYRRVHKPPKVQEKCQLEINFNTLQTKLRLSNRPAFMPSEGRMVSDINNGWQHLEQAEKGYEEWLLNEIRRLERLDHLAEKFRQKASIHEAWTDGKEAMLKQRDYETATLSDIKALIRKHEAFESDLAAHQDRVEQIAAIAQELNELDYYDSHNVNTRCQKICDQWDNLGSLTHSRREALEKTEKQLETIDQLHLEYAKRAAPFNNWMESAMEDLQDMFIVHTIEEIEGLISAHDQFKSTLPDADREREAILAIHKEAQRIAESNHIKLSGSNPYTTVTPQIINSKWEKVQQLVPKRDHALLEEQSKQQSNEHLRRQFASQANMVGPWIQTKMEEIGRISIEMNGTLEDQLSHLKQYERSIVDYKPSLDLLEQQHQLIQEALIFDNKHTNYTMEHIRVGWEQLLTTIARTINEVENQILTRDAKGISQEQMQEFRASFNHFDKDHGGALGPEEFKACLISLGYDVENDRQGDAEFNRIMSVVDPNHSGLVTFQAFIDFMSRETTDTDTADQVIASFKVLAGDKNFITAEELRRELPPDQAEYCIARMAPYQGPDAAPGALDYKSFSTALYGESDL

These are yes or no findings as the source states them, for the method shown. Binding seen in cells or lysates may run through a third protein. Some binding calls cover weakened binding; strength is not graded here.

For the assay, the target named is ALMS1, endogenous in mouse kidney (mouse (endogenous in C57BL/6Ei kidney)) (UniProt Q8K4E0). Briefly: co-IP; C57BL/6Ei mouse kidney lysate (500 µg) incubated overnight at 4°C with C-terminal ALMS1 antibody or IgG, Protein A sepharose, blot with anti-ACTN4.

Turning to “α-actinin 4, endogenous in mouse kidney (from UniProt P57780 1-912)”, the binding entry is recorded as “binds”.
